The other results are listed elsewhere or left out.
Experiments:
Test in all cases: log2 fold change, soluble protein after heating vs DMSO (PISA); higher = thermal stabilisation; K562 lysate, 10 uM; active = over 0.2 and 3.5 SD of the protein, either way, in both replicates (recomputed)
ibrutinib = compound: C=CC(=O)N1CCC[C@@H](n2nc(-c3ccc(Oc4ccccc4)cc3)c3c(N)ncnc32)C1 [ibrutinib]
Method in brief: (§1)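 Quantification was by TMTpro 16plex LC-MS/MS with equalised channel sums, applied to the supernatant after 21,000xg for 90 min. Samples were crude K562 extract at 1 mg/mL protein in PBS pH 7.4 with 1 mM MgCl2, treated with 10 μM compound for 30 min, heated for 3 min across 48°C-58°C, pooled and brought to 0.5% NP-40 at 4°C. Values are log-two fold changes in thermal stability relative to solvent controls, from duplicates.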

Protein sequences, listed by entry. Tags and fused reporters are not part of them. Lines headed by an entry give the natural chain unless they say otherwise; changes in a name come on top.
UniProt Q09028, whole entry, looked up: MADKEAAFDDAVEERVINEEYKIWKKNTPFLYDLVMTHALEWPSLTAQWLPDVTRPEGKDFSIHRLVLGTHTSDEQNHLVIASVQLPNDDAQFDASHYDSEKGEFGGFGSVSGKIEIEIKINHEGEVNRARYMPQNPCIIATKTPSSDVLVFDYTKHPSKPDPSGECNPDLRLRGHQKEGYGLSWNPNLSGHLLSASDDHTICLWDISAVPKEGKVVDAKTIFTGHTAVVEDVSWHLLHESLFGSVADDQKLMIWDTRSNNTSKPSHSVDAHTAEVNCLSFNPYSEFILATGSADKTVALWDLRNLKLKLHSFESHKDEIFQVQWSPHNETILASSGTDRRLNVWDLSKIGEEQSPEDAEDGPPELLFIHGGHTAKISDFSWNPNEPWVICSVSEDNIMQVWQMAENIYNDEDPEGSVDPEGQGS
UniProt Q9BTD8: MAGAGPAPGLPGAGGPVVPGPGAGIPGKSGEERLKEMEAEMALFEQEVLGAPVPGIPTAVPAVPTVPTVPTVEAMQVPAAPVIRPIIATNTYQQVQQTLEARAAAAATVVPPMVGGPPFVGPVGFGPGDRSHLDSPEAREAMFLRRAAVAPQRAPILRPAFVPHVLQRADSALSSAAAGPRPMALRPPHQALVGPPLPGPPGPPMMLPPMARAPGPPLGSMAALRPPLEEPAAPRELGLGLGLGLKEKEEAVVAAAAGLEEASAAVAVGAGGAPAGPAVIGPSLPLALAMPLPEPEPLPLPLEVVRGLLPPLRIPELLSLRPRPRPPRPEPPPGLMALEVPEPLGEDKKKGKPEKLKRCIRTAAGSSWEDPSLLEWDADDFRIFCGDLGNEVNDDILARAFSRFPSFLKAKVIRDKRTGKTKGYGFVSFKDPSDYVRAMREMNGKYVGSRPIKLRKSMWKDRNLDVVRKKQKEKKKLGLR
UniProt Q8TAC1: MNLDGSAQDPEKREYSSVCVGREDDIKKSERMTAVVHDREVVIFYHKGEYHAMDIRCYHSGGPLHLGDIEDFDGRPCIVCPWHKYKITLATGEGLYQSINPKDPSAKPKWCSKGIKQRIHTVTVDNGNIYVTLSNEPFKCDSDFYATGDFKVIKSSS
UniProt O43251: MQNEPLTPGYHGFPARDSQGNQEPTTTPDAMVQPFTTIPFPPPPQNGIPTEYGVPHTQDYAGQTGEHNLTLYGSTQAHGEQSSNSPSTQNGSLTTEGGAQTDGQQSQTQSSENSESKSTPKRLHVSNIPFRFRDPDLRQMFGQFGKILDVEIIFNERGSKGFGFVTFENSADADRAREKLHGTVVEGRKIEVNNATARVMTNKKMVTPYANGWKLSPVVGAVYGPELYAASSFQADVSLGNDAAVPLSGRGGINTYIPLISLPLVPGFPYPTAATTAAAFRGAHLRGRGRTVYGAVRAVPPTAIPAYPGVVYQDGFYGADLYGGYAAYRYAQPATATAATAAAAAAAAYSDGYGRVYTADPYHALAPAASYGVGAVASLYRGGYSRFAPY
UniProt Q96T37: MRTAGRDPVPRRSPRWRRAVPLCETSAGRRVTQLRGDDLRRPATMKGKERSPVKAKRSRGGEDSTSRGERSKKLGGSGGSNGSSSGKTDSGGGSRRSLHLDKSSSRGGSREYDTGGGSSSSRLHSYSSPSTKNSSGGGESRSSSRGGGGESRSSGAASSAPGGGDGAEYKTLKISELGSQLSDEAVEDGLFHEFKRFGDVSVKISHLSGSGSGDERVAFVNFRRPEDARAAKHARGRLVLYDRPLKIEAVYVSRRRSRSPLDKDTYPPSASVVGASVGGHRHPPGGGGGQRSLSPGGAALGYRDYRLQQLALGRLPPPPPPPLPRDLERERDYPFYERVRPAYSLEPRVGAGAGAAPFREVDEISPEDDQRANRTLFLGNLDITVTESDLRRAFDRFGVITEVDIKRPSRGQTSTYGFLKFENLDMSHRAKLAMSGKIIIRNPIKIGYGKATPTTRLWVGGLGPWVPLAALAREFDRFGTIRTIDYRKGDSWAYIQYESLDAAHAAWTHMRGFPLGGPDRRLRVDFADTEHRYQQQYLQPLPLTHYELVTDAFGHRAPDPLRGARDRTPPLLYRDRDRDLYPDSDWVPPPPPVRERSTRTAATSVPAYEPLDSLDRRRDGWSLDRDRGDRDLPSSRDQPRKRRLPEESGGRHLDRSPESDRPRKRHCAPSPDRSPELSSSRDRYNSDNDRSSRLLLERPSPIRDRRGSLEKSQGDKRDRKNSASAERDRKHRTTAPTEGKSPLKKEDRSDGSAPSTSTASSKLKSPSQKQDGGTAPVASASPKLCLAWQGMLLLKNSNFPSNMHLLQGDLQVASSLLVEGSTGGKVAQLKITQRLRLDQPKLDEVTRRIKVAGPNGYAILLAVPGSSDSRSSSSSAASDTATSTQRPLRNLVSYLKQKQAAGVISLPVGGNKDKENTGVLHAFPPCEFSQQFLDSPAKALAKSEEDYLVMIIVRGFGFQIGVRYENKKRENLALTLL
UniProt Q15291, whole entry, looked up: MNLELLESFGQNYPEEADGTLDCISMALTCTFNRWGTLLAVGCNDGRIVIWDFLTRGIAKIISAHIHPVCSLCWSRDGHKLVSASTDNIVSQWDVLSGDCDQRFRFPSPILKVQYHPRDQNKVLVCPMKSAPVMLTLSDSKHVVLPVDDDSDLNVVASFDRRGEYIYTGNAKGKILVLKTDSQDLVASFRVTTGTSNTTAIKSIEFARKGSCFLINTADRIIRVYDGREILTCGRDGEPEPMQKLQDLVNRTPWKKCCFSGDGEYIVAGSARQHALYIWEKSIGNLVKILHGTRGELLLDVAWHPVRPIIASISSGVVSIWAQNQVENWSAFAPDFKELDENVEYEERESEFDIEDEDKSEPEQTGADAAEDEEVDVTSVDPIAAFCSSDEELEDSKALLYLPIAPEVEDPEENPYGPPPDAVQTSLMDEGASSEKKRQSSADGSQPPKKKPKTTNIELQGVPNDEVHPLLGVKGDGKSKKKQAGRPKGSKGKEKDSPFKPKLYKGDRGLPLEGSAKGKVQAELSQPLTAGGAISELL
UniProt Q9Y2P8: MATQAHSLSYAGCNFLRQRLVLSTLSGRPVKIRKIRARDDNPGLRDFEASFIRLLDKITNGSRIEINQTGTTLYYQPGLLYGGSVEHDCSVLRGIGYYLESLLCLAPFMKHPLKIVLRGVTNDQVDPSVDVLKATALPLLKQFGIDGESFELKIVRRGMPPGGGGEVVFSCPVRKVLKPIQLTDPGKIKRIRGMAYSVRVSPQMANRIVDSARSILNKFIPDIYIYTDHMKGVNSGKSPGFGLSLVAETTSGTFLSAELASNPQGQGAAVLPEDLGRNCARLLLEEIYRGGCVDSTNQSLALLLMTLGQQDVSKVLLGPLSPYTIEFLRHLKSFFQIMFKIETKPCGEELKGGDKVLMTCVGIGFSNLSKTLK
UniProt Q6NUM9: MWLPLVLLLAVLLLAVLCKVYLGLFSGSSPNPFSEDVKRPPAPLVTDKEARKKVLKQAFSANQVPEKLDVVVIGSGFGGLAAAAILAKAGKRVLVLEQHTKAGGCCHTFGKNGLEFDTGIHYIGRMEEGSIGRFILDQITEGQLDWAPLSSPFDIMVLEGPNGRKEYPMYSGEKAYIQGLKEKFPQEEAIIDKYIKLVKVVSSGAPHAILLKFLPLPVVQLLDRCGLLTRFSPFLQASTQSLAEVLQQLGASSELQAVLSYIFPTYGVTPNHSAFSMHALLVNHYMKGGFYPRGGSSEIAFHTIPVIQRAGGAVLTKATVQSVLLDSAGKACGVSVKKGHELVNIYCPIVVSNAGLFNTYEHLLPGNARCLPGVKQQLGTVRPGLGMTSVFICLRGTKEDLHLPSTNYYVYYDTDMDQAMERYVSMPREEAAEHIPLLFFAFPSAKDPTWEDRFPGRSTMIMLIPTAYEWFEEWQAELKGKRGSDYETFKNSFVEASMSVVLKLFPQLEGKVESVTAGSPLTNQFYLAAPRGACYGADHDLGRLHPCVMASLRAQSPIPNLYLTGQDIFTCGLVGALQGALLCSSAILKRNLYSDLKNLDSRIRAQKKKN
UniProt O15211: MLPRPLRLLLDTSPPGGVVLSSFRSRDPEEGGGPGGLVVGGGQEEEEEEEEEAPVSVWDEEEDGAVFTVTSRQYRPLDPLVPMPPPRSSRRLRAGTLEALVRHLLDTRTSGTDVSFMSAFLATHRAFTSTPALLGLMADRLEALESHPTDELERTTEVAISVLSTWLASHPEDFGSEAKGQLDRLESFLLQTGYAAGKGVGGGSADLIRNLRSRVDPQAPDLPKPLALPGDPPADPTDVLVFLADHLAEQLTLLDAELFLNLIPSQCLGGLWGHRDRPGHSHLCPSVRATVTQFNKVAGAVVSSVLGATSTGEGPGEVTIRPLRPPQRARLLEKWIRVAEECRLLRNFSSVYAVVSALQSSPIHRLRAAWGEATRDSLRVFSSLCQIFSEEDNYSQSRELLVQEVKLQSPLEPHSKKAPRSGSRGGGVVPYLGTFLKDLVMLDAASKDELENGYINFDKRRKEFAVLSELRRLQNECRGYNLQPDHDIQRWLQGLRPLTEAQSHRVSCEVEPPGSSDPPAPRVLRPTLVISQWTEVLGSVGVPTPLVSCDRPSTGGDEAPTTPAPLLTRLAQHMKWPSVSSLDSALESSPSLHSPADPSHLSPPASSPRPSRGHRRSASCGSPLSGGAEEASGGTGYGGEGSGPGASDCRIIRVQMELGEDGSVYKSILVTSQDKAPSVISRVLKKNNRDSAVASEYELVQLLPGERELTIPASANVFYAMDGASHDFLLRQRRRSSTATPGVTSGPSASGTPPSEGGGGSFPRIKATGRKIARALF
UniProt Q96IC2: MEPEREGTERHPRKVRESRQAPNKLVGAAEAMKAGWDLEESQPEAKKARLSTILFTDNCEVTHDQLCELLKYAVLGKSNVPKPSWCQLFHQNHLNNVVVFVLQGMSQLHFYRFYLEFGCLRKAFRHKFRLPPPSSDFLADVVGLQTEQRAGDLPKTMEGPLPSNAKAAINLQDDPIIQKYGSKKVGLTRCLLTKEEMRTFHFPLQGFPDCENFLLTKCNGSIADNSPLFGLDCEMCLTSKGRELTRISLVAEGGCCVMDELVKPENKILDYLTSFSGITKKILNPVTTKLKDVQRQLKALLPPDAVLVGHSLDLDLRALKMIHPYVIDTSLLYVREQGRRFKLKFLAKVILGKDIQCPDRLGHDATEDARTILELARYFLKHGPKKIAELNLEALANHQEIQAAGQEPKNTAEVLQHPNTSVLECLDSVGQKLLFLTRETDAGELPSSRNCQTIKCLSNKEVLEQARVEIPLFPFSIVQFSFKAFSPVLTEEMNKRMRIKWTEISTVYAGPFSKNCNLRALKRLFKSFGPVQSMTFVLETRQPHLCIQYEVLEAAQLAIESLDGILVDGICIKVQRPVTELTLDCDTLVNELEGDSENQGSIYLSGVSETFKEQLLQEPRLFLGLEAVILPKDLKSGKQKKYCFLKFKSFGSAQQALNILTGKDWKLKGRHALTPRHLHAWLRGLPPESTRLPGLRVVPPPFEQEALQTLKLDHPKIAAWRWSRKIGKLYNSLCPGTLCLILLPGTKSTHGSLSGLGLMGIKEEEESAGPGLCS
UniProt Q8IXT5: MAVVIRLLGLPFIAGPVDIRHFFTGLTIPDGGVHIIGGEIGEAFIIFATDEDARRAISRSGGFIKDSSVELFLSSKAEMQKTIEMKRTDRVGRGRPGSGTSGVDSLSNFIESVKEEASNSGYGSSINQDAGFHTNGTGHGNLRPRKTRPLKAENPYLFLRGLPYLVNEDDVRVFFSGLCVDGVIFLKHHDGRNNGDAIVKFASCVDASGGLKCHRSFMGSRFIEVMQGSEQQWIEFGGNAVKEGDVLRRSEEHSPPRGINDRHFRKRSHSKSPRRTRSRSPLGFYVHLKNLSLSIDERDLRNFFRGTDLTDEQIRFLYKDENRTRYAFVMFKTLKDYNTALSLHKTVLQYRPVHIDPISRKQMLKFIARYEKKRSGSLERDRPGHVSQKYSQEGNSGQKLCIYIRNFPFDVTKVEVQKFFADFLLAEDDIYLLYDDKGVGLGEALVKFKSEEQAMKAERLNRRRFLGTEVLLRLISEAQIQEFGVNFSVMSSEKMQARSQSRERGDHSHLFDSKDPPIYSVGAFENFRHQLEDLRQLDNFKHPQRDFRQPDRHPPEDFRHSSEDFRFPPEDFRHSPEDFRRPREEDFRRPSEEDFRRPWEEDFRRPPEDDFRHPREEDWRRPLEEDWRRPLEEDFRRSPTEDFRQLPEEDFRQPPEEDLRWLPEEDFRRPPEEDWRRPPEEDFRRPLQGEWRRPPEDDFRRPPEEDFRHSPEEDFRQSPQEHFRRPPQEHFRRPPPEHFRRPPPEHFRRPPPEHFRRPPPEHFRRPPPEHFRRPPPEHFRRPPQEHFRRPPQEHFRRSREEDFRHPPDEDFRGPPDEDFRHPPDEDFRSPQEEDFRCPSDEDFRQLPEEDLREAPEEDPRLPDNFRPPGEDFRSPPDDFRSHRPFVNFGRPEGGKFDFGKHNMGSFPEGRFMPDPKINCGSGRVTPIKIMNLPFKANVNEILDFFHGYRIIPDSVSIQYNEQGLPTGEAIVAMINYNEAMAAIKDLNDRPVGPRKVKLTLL

[1] = compound: CC(=O)c1cnc2ccc(-c3cc(Cl)c(O)c(Cl)c3)nc2c1N[C@H]1CC[C@H](CN(C)C)CC1
Method in brief: as §1

ralimetinib = compound: CC(C)(C)Cn1c(N)nc2ccc(-c3[nH]c(C(C)(C)C)nc3-c3ccc(F)cc3)nc21 [ralimetinib]
Method in brief: as §1

[2] = compound: CC(C)(O)CC(=O)NCCn1ccc2ncnc(Nc3ccc(Oc4cccc(C(F)(F)F)c4)c(Cl)c3)c21
Method in brief: as §1

[3] = compound: CC(C)C1=C2N=C(C=C(N2N=C1)NCC3=CC=CC=C3)NCCCCCCN
Method in brief: as §1

[4] = compound: CC1=C(C(CC(=O)N1)C2=CC=C(C=C2)C(F)(F)F)C(=O)NC3=C(C=C4C(=C3)C=NN4)F
Method in brief: as §1

[5] = compound: CC1=C(C2=C(C=C1)C(=O)C3=CC=CC=C3N2CCCN)C
Method in brief: as §1

[6] = compound: CC1=C(C=C(C=C1)NC(=O)C2=CC(=CC=C2)C(C)(C)C#N)NC3=CC4=C(C=C3)N=CN(C4=O)C
Method in brief: as §1

[7] = compound: CC1=C(C=C(C=C1)NC(=O)C2=CC(=CC=C2)N(C)C)NC(=O)C3=CC=C(C=C3)O
Method in brief: as §1

[8] = compound: CC1=CC=C(C=C1)SC2=C3C=C(SC3=CN=C2)C(=O)N
Method in brief: as §1

Measured: log2 fold change

RBBP4 (UniProt Q09028)
inactive: ibrutinib 0.031 | [1] -0.01 | ralimetinib 0.031 | [2] 0.024 | [3] -0.006 | [4] -0.022 | [5] 0.003 | [6] 0.035 | [7] -0.021 | [8] -0.017

RBM5 (UniProt P52756)
inactive: ibrutinib -0.017 | [1] 0.03 | ralimetinib 0.004 | [2] 0.042 | [3] -0.141 | [4] -0.004 | [5] 0.065 | [6] 0.035 | [7] -0.007 | [8] -0.06

RERE (UniProt Q9P2R6)
inactive: ibrutinib -0.007 | [1] -0.015 | ralimetinib 0.004 | [2] -0.065 | [3] 0.019 | [4] -0.02 | [5] -0.008 | [6] -0.129 | [7] 0.03 | [8] -0.084

RBM14 (UniProt Q96PK6)
inactive: ibrutinib -0.027 | [1] 0.048 | ralimetinib 0.103 | [2] 0.08 | [3] -0.072 | [4] 0.047 | [5] -0.008 | [6] 0.015 | [7] -0.009 | [8] 0.033

RFK (UniProt Q969G6)
inactive: ibrutinib 0.052 | [1] -0.037 | ralimetinib 0.056 | [2] 0.091 | [3] -0.017 | [4] 0.005 | [5] 0.032 | [6] 0.007 | [7] 0.027 | [8] -0.042

Quoted at random: 2 entries already listed.
RERE (UniProt Q9P2R6)
inactive: ibrutinib -0.007 | [1] -0.015 | ralimetinib 0.004 | [2] -0.065 | [3] 0.019 | [4] -0.02 | [5] -0.008 | [6] -0.129 | [7] 0.03 | [8] -0.084

RBM14 (UniProt Q96PK6)
inactive: ibrutinib -0.027 | [1] 0.048 | ralimetinib 0.103 | [2] 0.08 | [3] -0.072 | [4] 0.047 | [5] -0.008 | [6] 0.015 | [7] -0.009 | [8] 0.033

(continued)

RBM42 (UniProt Q9BTD8)
inactive: ibrutinib 0.071 | [1] 0.02 | ralimetinib -0.011 | [2] -0.007 | [3] 0.081 | [4] 0.025 | [5] 0.04 | [6] -0.028 | [7] -0.005 | [8] 0.069

RBM23 isoform 2 (UniProt Q86U06)
inactive: ibrutinib -0.125 | [1] -0.014 | ralimetinib 0.041 | [2] -0.096 | [3] 0.081 | [4] 0.151 | [5] -0.122 | [6] 0.112 | [7] -0.022 | [8] 0.05

REV1 (UniProt Q9UBZ9)
inactive: ibrutinib 0.013 | [1] 0.035 | ralimetinib 0.074 | [2] 0.081 | [3] 0.012 | [4] 0.021 | [5] 0.078 | [6] -0.067 | [7] -0.001 | [8] -0.001

RCHY1 (UniProt Q96PM5)
inactive: ibrutinib 0.027 | [1] -0.013 | ralimetinib 0.002 | [2] 0.019 | [3] 0.009 | [4] -0.055 | [5] 0.022 | [6] 0.212 | [7] -0.012 | [8] -0.011

RFESD isoform 2 (UniProt Q8TAC1)
inactive: ibrutinib 0.025 | [1] -0.009 | ralimetinib -0.005 | [2] 0.03 | [3] -0.016 | [4] -0.02 | [5] 0.011 | [6] 0.016 | [7] -0.027 | [8] -0.013

RBM4 (UniProt Q9BWF3)
inactive: ibrutinib 0.006 | [1] 0.021 | ralimetinib 0.008 | [2] -0.014 | [3] 0.023 | [4] 0.028 | [5] 0.005 | [6] -0.154 | [7] 0.025 | [8] -0.004

RBFOX2 isoform 8 (UniProt O43251)
inactive: ibrutinib -0.293 | [1] 0.025 | ralimetinib -0.036 | [2] -0.086 | [3] -0.174 | [5] -0.048 | [6] -0.268 | [7] 0.005 | [8] 0.11

RBP4 (UniProt P02753)
inactive: ibrutinib 0.069 | [6] -0.234

RBM15 (UniProt Q96T37)
inactive: ibrutinib -0.113 | [1] 0.01 | ralimetinib -0.067 | [2] 0.064 | [3] 0.007 | [5] 0.017 | [6] -0.036 | [7] 0.036 | [8] 0.045

RECQL4 (UniProt O94761)
inactive: ibrutinib 0.016 | ralimetinib -0.034 | [2] -0.06 | [3] 0.039 | [4] -0.017 | [5] 0.076 | [6] 0 | [7] 0.044

RBBP5 isoform 2 (UniProt Q15291)
inactive: ibrutinib 0.07 | [1] 0.003 | ralimetinib 0.054 | [2] 0.026 | [4] -0.297 | [5] 0.038 | [6] -0.302 | [7] -0.025 | [8] -0.114

RFXANK (UniProt O14593)
inactive: ibrutinib 0.1 | [1] -0.068 | ralimetinib 0.088 | [2] 0.024 | [3] 0.085 | [5] -0.012 | [6] 0.008 | [7] 0.019 | [8] 0.058

RCL1 (UniProt Q9Y2P8)
inactive: ibrutinib 0.071 | [1] 0 | ralimetinib 0.052 | [2] -0.003 | [3] -0.048 | [4] 0.069 | [5] 0.036 | [6] 0.115 | [7] 0.012 | [8] 0.003

RBL2 (UniProt Q08999)
inactive: ibrutinib 0.014 | [1] -0.061 | ralimetinib 0.055 | [2] -0.018 | [4] -0.047 | [5] -0.004 | [6] -0.145 | [7] 0.002 | [8] 0.008

RETSAT (UniProt Q6NUM9)
inactive: ibrutinib -0.091 | [1] 0.073 | ralimetinib -0.057 | [2] -0.134 | [3] 0.07 | [5] -0.113 | [6] 0.226 | [7] -0.015 | [8] -0.24

RBBP9 (UniProt O75884)
inactive: ibrutinib -0.008 | ralimetinib -0.059 | [2] -0.017 | [3] -0.005 | [6] 0.086 | [7] 0.086

RGL2 (UniProt O15211)
inactive: [1] 0.057 | ralimetinib -0.143 | [2] 0.206 | [3] 0.173 | [4] -0.172 | [5] -0.147 | [6] -0.022 | [7] -0.038 | [8] -0.001

RBBP4 isoform 2 (UniProt Q09028)
inactive: ibrutinib 0.003 | [1] -0.068 | [8] 0.006

RBBP5 (UniProt Q15291)
inactive: ibrutinib -0.001 | [1] -0.033 | ralimetinib 0.036 | [2] -0.002 | [3] -0.003 | [4] -0.008 | [5] 0.046 | [6] 0.02 | [7] -0.003 | [8] -0.029

REXO5 (UniProt Q96IC2)
inactive: ibrutinib -0.063 | ralimetinib 0.02 | [2] -0.065 | [3] -0.04 | [4] 0.015 | [5] -0.004 | [7] 0.088

RASSF7 (UniProt Q02833)
inactive: ibrutinib -0.049 | [4] 0.015 | [6] -0.078

RFX2 (UniProt P48378)
inactive: ibrutinib -0.151 | [1] 0.012 | [5] -0.078 | [6] 0.013 | [8] -0.077

RBM41 (UniProt Q96IZ5)
inactive: ibrutinib 0.072 | [4] -0.032

RBM12B (UniProt Q8IXT5)
inactive: ibrutinib -0.279 | ralimetinib 0.106 | [2] 0.169 | [4] 0.042 | [7] 0.118

RBMY1E (UniProt A6NEQ0)
inactive: ibrutinib -0.007 | [1] -0.138 | [5] -0.093 | [6] 0.059 | [8] -0.016

RBIS (UniProt Q8N0T1)
inactive: ibrutinib 0.057 | ralimetinib -0.033 | [2] -0.148 | [3] -0.057 | [5] -0.013 | [6] 0.029 | [7] 0.05

RFX7 (UniProt Q2KHR2)
inactive: ibrutinib 0.057 | [1] -0.075 | ralimetinib -0.092 | [2] 0.152 | [3] -0.036 | [4] 0.006 | [5] -0.11 | [6] -0.017 | [7] 0.018 | [8] -0.034

RETREG2 (UniProt Q8NC44)
inactive: ibrutinib 0.011 | [1] 0.009 | ralimetinib 0.071 | [2] -0.129 | [3] 0.062 | [4] 0.127 | [6] 0.051 | [7] 0.116 | [8] 0.011

Source: the supplement of paper PMC10849652
